Results published in publication PMC10819704, “Regulatory Role of GgaR (YegW) for Glycogen Accumulation in Escherichia coli K-12” (Microorganisms, 2024).
A negative result means that nothing was seen under these conditions. Tags and fusion partners may be left off the protein sequences shown. Construct, isoform or probe ends are uncertain for at least one entry. Weaker means in comparison with the reference protein, sequence or condition of that experiment.

Target: T1, GgaR (YegW) (Escherichia coli K-12 W3110) (UniProt P0ACM5)
T1 sequence (looked up): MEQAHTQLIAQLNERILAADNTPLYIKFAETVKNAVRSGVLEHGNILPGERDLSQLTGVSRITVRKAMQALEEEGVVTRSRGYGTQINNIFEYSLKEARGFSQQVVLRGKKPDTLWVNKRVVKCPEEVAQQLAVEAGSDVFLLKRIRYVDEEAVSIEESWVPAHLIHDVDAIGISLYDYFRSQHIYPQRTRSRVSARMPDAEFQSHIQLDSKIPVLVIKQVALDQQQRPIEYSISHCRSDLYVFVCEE
Assay: EMSA
Conditions: 0.5 pmol probe, EMSA: binding buffer composition and pH not given, 37 C, 30 min (+30 min with effector), 5% PAGE, recombinant protein, probe letters rebuilt from the primers and the genome

[1] = 5 or 10 pmol GgaR, GelRed stain, residues 1-248, protein details: His tag implied by pET21a(+) NdeI/NotI and Ni-NTA

Sequence | binding result (0.25-3 pmol GgaR, GelRed …, residues 1-248, protein details: His tag implied by pET21a(+) NdeI/NotI and Ni-NTA) | binding result (ADP 10-100 uM, 2.0 pmol GgaR, no interference, GelRed stain, residues 1-248, protein details: His tag implied by pET21a(+) NdeI/NotI and Ni-NTA) | binding result (ADPG 10-100 uM, 2.0 pmol GgaR, complex reduced, GelRed stain, residues 1-248, protein details: His tag implied by pET21a(+) NdeI/NotI and Ni-NTA) | binding result (glucose 10-100 uM, 2.0 pmol GgaR, no interference, GelRed stain, residues 1-248, protein details: His tag implied by pET21a(+) NdeI/NotI and Ni-NTA) | binding result [1]
CAAATGAAGCTCCGGCAGAGTGCTCAACGCCCTGGTCAACCGGCAGAATAGAAAGATATCCTGTGCCAGCCAGACGCCCGGTGTTGTACAACGTCTGCATATTACGTAACACCGCTGGCGGGCGATTATTGTCAATCATTACGCGGTCTACGTAGTCATGTCCGGGGAGATAAAGCTGGTCAGAAGGAATTGTCATACAACGGTGCTGTAAAAGGTTGTCGGCGTCTTTGCCAAGCAACTGCGCAATATCTGTCATTACTATGCTCCCGTAAATTCCGATTGGATATCGGCTATGGATTGTCCTGGCCCGCCTTTTGCGGGCAATCATAATCCTGGTCGTTACGGGCGAGTTTTTCCATCTTTTGGATGTTTTTTCAGCGTTTTCTGTTGGCTCGATTCATCAGAAAAAATGTTAGCGCGGTCAAGTTTTCACCGCAAAGGTATTTAAAAGGTATTATTAAGTGGTATTGTCATCGCGTACCTTACATTACCTGTCATG (double strand) [fbaB/yegT spacer probe] | binds | binds | binds more weakly | binds | –
CCAACTTCGGTCAGATAACCGTTGGCAAAGATGTAATAGAACGCTAGTGGCATCGCAAACAGGAATGAACAGAAGAAAAAGACGAGGAAGTTTTTATCGCGCAGCAGGATCAGCGCATCCAGGCCGAGCATGACTTTAATATCCATTTTGCCGGTGCTTTTTGGTGGCGTGTCGGGCAGGAAAAACGCAAACACACCGAGCAGAGCAGAACTTCCGGCGGTAATCAGCAGCGGGATGTTAGTCGGTGAGATATCGGCATACCCCAGTATTTGCGGCAAGAAACCACATGCCAGACCGGAGGCAATCCAGCCGATAGTGCCCATCACACGAATGCGCGGGAAATCACGCTCAACATCCGGCACGTTGGCAAAAGCGATGCTGTTAGTCAGCGCAATGGTCGGCATATAGGTTAGCGAGTAGGCCAGCAGTAACGGGAAGAACCCGGCAAAAGTGGTCTGTTGCGCAGCGAAATACATCAGCAGCGCGCCTGCGAACATCAATACCGCCAGCACTTTTTGCGCCGAGAAAAAGCGGTCAGTGAT (double strand) [probe-4] | – | – | – | – | no binding
GGCATATAGGTTAGCGAGTAGGCCAGCAGTAACGGGAAGAACCCGGCAAAAGTGGTCTGTTGCGCAGCGAAATACATCAGCAGCGCGCCTGCGAACATCAATACCGCCAGCACTTTTTGCGCCGAGAAAAAGCGGTCAGTGATGGAGCCAACCAGAATTGGCGACAGGATCGCCGCAATGGCGGTACAGGCATACGACCAGCCAATTTCTCCGGCACTAAAACCGCTTTTACTTAACCACAACCACAATGGCACAAACCACGCGCCCCAGATAAACCATTCAACAAACATCATGAACGACAGCTTTGCTGTTGTTTTCATCTTTTAATTCCTTCATGACAG (double strand) [probe-3] | – | – | – | – | no binding
TCATTTAACTTCCCCTTGTGTCAACGCAATATCGCGATCATCGACCTTGATAGCCGTAATTTCGTTGTCGGATTCGCGGAAAAAAATCATGAACAGCACGGCGATAATGGCAATCATCACCGCGCCGAAAGTCCACATCCCGGACCAGTTGAAAGTCAGTCCGTTTACCGGTTCCTGATAAGCGAACATCTTTTCCATCATCACACCGCCAAGACGATAGCCGAGCAAACTGCCGAAGCCCTGGCAGCAGAGCGTGATCAGCCCCTGCGCAGCGGTACGCATATGCACGGGGGCTTTTTTATCGACATAGATGTAAGCGGTAACGTAGTAAAAATCGTAACTTACGCCGTGAAGCAAAATACCGAGGAACAGTAACGCGTAGGTGAAATATTCATCCGCACTACCGTAAATAAAGAAGCCATAGCGGATCGCAGCGGTGACCAGACCAAGCAATAATACCTT (double strand) [probe-6] | – | – | – | – | no binding
